Laboratory results from article PMC5013874.
These are yes or no findings as the source states them, for the method shown. Binding seen in cells or lysates may run through a third protein. Some binding calls cover weakened binding; strength is not graded here. For some assays here: Where a sequence is shown, tags or fusion partners need not be part of it.

Protein sequences, listed by entry. Tags and fused reporters are not part of them. Lines headed by an entry give the natural chain unless they say otherwise; changes in a name come on top.
UniProt P61026: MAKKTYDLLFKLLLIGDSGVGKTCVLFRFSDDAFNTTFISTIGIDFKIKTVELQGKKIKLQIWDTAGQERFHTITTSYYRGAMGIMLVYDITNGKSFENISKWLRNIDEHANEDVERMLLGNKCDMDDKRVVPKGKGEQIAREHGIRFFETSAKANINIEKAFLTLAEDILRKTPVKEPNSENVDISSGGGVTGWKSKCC
UniProt P62330: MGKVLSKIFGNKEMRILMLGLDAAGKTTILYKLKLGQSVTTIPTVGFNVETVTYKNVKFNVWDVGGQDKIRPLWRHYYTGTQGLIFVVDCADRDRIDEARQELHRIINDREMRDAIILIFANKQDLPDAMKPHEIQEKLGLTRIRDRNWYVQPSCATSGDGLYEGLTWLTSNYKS
UniProt Q15286: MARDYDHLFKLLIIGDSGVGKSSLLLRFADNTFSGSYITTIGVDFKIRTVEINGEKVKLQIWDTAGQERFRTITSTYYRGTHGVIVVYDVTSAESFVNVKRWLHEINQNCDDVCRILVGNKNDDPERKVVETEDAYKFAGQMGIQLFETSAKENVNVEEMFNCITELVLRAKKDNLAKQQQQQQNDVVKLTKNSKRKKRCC

Legend:
GFP-Rab10 (human) = GFP-Rab10 (human) (UniProt P61026); experiment: co-IP
GFP-ARF6 (human) [1] = target: GFP-ARF6 (human) (UniProt P62330); experiment: co-IP
GFP-ARF6 Q67L (human) = GFP-ARF6 Q67L (human) (UniProt P62330); experiment: co-IP
GFP-Rab37 (human) = target: T1, GFP-Rab37 (human) (UniProt Q96AX2); experiment: co-IP
T1 sequence: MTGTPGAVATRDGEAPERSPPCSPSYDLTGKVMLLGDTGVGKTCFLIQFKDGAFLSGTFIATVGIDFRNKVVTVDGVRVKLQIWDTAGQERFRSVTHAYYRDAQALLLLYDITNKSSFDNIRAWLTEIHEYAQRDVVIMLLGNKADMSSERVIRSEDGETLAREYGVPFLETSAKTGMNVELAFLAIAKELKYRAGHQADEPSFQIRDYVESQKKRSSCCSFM

GFP-Rab43a (human) = target: T2, GFP-Rab43a (human) (UniProt Q86YS6); experiment: co-IP
T2 sequence: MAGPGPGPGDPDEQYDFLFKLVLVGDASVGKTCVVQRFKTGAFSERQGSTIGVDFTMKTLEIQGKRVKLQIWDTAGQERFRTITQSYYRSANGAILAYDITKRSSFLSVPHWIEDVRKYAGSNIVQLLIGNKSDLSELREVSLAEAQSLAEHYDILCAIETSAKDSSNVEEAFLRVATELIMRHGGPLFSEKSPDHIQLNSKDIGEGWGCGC

GFP-Rab35 (human) = GFP-Rab35 (human) (UniProt Q15286); experiment: co-IP
GFP-Rab13 (human) = target: T3, GFP-Rab13 (human) (UniProt P51153); experiment: co-IP
T3 sequence: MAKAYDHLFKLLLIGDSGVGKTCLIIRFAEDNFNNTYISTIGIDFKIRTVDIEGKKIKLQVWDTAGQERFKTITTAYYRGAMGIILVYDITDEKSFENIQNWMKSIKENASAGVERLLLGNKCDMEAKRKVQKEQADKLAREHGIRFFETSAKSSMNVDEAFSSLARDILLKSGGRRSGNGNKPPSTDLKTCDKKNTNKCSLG

GFP-ARF6 (human) [2] = target: GFP-ARF6 (human) (UniProt P62330); experiment: co-IP; infection time-course from 2.5 to 7.5 h of infection; data not shown

Measured: binding

B1: EspG:4xHA (protein, UniProt Q7DB50 1-381)
chain: MINGLNNDSASLVLDAAMKVNSGFKKSWDEMSCAEKLFKVLSFGLWNPTYSRSERQSFQELLTVLEPVYPLPNELGRVSARFSDGSSLRISVTNSELVEAEIRTANNEKITVLLESNEQNRLLQSLPIDRHMPYIQVHRALSEMDLTDTTSMRNLLGFTSKLSTTLIPHNAQTDPLSGPTPFSSIFMDTCRGLGNAKLSLNGVDIPANAQKLLRDALGLKDTHSSPTRNVIDHGISRHDAEQIARESSGSDKQKAEVVEFLCHPEAATAICSAFYQSFNVPALTLTHERISKASEYNAERSLDTPNACINISISQSSDGNIYVTSHTGVLIMAPEDRPNEMGMLTNRTSYEVPQGVKCIIDEMVSALQPRYAASETYLQNT
binds: all assays above
